The values below are quoted from earlier work in paper PMC2674521 (Journal of pharmaceutical sciences, 2009).

One data set relates to HSA. The settings on record: reference not given; cited from earlier work.
The conditions of data set [1]: cited from earlier work.

As for `NS(=O)(=O)c1cc(C(=O)O)c(NCc2ccco2)cc1Cl` [Furosemide], the “affinity for site IIA of HSA (Ka)” value in the data set on HSA was 26000 M⁻¹. Moreover, in data set [1], the protein-bound in humans is above 98%.
